Values of other authors as cited in patent publication US20130225597A1, “USE OF PHOSPHODIESTERASE INHIBITOR TO ENHANCE POST-SURGICAL ERECTION IN MEN UNDERGOING RADICAL PROSTATECTOMY” (University of Medicine and Dentistry of New Jersey, priority 2010, published 2013).
Where a name gives a salt, the structure may show the parent alone. At least one structure is not confirmed: it was looked up by name or label, or the drawing left a doubt.

Tested on: PDE-6
Details: cited from earlier work

## CCCc1nn(C)c2c(=O)[nH]c(-c3cc(S(=O)(=O)N4CCN(C)CC4)ccc3OCC)nc12 [sildenafil citrate]
Among FDA-approved PDE-5 inhibitors
  selectivity for PDE-6: selective for PDE-6
Compared with vardenafil
  selectivity for PDE-6δ (rods): greater selectivity than vardenafil
